This is one part of the list.
Columns and labels:
Assay in all cases: log2 fold change, soluble protein after heating vs DMSO (PISA); higher = thermal stabilisation; K562 lysate, 10 uM; active = over 0.2 and 3.5 SD of the protein, either way, in both replicates (recomputed)
erlotinib = compound: C#Cc1cccc(Nc2ncnc3cc(OCCOC)c(OCCOC)cc23)c1 [erlotinib]
Procedure, shortened: (§1)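 K562 pellets were dounce-homogenised in PBS pH 7.4 containing 1 mM MgCl2, and the crude extract, at 1 mg/mL protein, was exposed to 10 μM compound for 30 min. Aliquots were heated for 3 min across 48°C-58°C, pooled, brought to 0.5% NP-40 at 4°C and spun at 21,000xg for 90 min, with the supernatant taken as soluble protein. TMTpro 16plex LC-MS/MS with equalised channel sums quantified that protein. Values are log-two fold changes in thermal stability relative to solvent controls, taken from duplicates.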

Sequences of proteins named here, by UniProt entry; tags and fusion partners are left off. A change or cut given only in a name is not applied to a line headed by its entry.
UniProt Q9UJX5, whole entry, looked up: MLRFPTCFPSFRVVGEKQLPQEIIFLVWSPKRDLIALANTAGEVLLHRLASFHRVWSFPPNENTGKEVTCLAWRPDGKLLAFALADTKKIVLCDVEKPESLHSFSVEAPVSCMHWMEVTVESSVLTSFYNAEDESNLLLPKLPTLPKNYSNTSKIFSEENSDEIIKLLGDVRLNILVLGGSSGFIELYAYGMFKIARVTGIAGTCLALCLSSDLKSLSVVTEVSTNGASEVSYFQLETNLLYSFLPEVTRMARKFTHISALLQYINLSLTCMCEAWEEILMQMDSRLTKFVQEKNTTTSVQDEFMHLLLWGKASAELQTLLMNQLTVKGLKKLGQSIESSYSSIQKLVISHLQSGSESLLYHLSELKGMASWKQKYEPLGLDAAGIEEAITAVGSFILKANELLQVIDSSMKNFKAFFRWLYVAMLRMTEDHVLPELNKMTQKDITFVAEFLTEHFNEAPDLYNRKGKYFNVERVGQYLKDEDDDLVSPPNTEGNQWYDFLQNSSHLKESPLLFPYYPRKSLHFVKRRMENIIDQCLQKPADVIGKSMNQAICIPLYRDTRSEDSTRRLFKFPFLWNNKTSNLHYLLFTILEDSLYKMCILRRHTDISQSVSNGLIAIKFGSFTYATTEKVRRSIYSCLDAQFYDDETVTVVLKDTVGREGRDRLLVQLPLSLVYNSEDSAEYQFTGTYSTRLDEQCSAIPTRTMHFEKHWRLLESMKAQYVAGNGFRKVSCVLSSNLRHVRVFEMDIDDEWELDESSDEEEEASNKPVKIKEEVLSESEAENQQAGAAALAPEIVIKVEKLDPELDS
UniProt Q9NW15: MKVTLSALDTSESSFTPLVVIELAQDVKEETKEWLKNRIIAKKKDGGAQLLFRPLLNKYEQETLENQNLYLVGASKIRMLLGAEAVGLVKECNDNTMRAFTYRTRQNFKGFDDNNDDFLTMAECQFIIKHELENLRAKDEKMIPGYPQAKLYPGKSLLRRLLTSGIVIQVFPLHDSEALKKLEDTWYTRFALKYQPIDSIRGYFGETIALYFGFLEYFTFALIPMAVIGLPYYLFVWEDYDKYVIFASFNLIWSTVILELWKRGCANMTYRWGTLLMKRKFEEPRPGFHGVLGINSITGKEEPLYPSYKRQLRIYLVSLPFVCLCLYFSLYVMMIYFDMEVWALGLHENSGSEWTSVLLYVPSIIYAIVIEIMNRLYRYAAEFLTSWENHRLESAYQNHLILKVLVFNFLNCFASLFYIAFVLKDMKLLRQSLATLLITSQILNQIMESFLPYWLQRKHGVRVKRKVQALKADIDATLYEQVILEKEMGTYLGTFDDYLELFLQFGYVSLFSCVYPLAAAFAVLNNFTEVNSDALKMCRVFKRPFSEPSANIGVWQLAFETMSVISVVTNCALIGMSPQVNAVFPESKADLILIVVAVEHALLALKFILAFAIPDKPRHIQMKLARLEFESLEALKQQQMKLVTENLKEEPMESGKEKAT
UniProt Q9BXX2: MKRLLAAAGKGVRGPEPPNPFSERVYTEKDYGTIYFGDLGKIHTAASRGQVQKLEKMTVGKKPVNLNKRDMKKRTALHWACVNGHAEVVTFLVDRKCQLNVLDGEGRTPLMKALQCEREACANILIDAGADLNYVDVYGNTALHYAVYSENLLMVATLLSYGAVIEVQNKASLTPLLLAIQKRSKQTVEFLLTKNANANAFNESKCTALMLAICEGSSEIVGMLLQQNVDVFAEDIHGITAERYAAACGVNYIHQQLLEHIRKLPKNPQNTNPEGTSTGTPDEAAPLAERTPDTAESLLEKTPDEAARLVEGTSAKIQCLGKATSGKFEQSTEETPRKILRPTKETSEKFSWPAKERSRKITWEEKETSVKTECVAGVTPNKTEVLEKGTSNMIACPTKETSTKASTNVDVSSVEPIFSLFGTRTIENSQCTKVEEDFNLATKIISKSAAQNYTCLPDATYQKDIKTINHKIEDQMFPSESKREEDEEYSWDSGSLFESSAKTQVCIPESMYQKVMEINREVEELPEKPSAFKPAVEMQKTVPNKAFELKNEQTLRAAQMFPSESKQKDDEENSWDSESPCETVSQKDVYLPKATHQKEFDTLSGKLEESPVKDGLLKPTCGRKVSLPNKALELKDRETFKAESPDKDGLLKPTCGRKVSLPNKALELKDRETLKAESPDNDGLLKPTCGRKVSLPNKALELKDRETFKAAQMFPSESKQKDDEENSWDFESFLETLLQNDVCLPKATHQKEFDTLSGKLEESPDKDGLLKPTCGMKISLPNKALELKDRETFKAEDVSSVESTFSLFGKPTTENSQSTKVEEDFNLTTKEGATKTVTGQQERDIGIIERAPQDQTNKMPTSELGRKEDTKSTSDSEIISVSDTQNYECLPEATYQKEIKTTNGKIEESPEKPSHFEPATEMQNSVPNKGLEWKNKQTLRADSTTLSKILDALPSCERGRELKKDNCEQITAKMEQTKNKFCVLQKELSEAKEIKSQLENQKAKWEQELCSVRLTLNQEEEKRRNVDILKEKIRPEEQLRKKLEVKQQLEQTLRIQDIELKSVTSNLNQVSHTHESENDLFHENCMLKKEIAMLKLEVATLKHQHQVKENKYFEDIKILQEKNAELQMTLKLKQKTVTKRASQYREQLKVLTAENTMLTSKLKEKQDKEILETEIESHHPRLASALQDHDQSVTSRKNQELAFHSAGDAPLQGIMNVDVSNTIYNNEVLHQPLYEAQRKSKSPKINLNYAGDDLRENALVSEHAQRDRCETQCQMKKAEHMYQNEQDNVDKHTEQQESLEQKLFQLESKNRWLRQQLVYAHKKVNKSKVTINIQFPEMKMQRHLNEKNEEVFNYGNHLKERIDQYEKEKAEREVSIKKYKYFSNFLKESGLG
UniProt P56377: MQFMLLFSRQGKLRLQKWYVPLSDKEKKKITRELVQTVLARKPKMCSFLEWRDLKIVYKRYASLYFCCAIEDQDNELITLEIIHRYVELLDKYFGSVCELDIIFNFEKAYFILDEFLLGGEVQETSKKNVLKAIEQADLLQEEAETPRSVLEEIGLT
UniProt P51649: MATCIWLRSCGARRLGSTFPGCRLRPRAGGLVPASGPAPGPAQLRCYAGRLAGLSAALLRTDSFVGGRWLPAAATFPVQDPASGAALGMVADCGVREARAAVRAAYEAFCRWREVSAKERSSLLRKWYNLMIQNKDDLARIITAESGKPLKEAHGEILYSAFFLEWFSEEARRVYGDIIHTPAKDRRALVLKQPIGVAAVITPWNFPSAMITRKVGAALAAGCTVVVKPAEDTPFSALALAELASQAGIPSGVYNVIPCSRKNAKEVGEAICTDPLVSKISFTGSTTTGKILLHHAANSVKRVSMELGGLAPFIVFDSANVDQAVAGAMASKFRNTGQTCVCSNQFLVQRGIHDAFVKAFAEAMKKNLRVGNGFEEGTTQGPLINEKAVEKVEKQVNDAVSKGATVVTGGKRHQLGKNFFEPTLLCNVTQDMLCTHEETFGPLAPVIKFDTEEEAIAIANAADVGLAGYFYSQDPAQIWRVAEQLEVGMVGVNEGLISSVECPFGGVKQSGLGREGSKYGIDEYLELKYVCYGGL
UniProt Q10567: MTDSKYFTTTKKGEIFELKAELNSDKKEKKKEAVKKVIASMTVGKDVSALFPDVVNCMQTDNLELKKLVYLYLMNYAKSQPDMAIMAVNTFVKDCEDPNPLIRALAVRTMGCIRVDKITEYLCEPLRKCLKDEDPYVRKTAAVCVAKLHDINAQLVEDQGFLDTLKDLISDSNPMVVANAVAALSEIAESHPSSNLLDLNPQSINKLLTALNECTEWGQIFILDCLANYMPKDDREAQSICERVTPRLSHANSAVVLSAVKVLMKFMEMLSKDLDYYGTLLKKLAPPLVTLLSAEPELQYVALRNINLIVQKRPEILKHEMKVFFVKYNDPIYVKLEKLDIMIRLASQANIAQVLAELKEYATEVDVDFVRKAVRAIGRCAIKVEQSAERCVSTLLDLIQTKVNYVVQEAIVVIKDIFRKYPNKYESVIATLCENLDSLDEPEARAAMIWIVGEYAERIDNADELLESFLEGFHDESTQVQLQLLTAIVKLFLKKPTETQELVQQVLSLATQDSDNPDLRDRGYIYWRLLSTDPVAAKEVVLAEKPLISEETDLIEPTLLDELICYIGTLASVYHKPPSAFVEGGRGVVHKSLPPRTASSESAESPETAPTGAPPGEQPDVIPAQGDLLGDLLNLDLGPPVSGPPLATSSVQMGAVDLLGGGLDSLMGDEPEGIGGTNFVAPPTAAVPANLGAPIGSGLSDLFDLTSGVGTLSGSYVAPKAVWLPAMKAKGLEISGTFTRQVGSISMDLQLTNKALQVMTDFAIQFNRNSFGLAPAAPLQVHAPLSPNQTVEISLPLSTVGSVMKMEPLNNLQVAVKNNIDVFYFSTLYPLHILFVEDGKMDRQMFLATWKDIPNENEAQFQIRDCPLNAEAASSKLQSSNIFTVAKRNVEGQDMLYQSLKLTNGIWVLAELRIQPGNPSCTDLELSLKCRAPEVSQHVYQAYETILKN
UniProt P08758: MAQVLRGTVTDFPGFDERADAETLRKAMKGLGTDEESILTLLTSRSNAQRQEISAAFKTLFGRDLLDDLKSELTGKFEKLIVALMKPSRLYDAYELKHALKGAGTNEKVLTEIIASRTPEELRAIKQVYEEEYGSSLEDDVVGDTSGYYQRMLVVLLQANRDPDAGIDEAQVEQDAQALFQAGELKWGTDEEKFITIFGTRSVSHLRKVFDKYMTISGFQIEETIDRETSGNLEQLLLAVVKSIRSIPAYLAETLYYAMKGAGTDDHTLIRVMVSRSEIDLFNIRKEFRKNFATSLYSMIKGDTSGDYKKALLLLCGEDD
UniProt Q9BT22: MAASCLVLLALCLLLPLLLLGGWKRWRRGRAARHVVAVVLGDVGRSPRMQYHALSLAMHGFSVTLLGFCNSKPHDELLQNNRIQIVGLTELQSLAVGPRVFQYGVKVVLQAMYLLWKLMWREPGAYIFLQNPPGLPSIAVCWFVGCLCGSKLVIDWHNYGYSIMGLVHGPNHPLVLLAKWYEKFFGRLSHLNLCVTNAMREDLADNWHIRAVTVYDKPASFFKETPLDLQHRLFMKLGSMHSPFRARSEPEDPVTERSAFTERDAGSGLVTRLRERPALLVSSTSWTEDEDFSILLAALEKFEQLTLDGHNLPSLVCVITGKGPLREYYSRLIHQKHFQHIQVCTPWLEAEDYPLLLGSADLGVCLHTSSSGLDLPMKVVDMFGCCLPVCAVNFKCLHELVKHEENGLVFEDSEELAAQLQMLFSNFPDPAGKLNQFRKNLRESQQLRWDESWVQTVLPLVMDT
UniProt P09525: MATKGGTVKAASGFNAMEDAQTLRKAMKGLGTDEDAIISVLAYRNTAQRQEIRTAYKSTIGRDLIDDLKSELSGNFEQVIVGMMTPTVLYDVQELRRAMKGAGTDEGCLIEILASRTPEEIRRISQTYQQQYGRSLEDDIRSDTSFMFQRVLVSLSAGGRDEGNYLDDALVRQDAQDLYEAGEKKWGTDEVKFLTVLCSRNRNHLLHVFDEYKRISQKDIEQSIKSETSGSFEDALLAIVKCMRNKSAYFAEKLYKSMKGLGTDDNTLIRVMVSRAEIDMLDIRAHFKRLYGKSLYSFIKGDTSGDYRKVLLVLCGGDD
UniProt P15144: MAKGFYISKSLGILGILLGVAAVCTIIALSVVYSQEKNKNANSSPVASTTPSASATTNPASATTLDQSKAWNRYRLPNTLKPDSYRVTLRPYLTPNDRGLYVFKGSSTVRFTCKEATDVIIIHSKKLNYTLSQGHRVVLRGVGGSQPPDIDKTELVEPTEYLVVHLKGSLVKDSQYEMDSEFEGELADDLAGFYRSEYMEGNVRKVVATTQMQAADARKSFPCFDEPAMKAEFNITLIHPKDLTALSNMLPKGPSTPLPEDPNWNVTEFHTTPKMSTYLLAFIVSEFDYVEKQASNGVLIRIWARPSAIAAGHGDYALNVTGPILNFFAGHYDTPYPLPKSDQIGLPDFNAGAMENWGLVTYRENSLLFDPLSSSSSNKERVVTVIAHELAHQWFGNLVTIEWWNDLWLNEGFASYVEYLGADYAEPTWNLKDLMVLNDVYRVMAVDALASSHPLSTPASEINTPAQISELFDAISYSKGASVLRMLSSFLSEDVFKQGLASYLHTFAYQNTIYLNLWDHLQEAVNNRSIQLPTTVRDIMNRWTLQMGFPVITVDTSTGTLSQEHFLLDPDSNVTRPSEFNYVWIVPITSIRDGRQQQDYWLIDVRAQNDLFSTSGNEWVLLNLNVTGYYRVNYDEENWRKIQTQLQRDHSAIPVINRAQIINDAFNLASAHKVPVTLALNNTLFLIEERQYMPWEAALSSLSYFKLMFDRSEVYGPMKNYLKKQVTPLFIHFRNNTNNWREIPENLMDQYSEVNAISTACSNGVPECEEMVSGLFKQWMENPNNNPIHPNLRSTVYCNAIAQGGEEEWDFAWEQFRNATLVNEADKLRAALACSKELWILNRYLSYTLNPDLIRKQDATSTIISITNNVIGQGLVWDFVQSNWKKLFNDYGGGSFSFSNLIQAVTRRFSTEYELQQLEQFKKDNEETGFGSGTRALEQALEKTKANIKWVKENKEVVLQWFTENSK

[1] = compound: C/C(=N\NC(=O)C1=CC(=CC=C1)S(=O)(=O)N2CCOCC2)/C3=C(C=CC(=C3)Cl)O
Procedure, shortened: as §1

[2] = compound: C1=CC(=CC=C1C2=NC3=C(N2)C=C(C=C3)C(=O)N)OC4=CC=C(C=C4)Cl
Procedure, shortened: as §1

[3] = compound: C1=CC2=C(C=CC(=C2)/C=C\3/C(=O)NC(=NCC4=CC=CS4)S3)N=C1
Procedure, shortened: as §1

[4] = compound: C1=CC2=NC=CN=C2C=C1/C=C/3\C(=O)NC(=O)S3
Procedure, shortened: as §1

[5] = compound: C1=CC=C(C=C1)C2=NC(=C(N2)C3=CC=NC=C3)C4=CC(=C(C=C4)Cl)O
Procedure, shortened: as §1

[6] = compound: C1=CC=C2C(=C1)C3=NNC4=CC=CC(=C43)C2=O
Procedure, shortened: as §1

[7] = compound: C1CCN(C1)C(=O)NC2=CC=CC(=C2)NC3=NC=C(C(=N3)NCCC4=CN=CN4)Br
Procedure, shortened: as §1

[8] = compound: C1CN(CCC1(CC2=CC=C(C=C2)Cl)N)C3=NC=NC4=C3C=CN4
Procedure, shortened: as §1

IRAK-1-4 Inhibitor I = compound: C1COCCN1CCN2C3=CC=CC=C3N=C2NC(=O)C4=CC(=CC=C4)[N+](=O)[O-] [IRAK-1-4 Inhibitor I]
Procedure, shortened: as §1

Measured: log2 fold change

AMD1 (UniProt P17707)
inactive: erlotinib 0.019 | [1] 0.011 | [2] -0.091 | [3] -0.075 | [4] 0.055 | [5] 0.061 | [6] 0.011 | [7] 0.114 | [8] -0.156 | IRAK-1-4 Inhibitor I -0.036

ANAPC4 isoform 3 (UniProt Q9UJX5)
inactive: erlotinib 0.035 | [1] -0.052 | [2] -0.022 | [3] 0 | [4] -0.003 | [5] -0.001 | [6] -0.041 | [7] -0.018 | [8] 0.031 | IRAK-1-4 Inhibitor I 0.019

ANAPC1 (UniProt Q9H1A4)
inactive: erlotinib 0.016 | [1] 0.011 | [2] -0.037 | [3] -0.024 | [4] 0.014 | [5] -0.006 | [6] 0.004 | [7] -0.014 | [8] 0.017 | IRAK-1-4 Inhibitor I 0.013

Copied from the entries so far (2 entries):
ANAPC4 isoform 3 (UniProt Q9UJX5)
inactive: erlotinib 0.035 | [1] -0.052 | [2] -0.022 | [3] 0 | [4] -0.003 | [5] -0.001 | [6] -0.041 | [7] -0.018 | [8] 0.031 | IRAK-1-4 Inhibitor I 0.019

ANAPC1 (UniProt Q9H1A4)
inactive: erlotinib 0.016 | [1] 0.011 | [2] -0.037 | [3] -0.024 | [4] 0.014 | [5] -0.006 | [6] 0.004 | [7] -0.014 | [8] 0.017 | IRAK-1-4 Inhibitor I 0.013

Later entries

ANP32A (UniProt P39687)
inactive: erlotinib -0.147 | [1] 0.075 | [2] -0.199 | [3] -0.012 | [4] 0.012 | [5] 0.006 | [6] 0.018 | [7] 0.026 | [8] -0.008 | IRAK-1-4 Inhibitor I 0.013

ANO10 (UniProt Q9NW15)
inactive: erlotinib 0.015 | [1] -0.015 | [2] -0.041 | [3] 0.047 | [4] 0.022 | [5] -0.032 | [6] 0.013 | [7] -0.034 | [8] -0.011 | IRAK-1-4 Inhibitor I -0.011

ANKRD30B (UniProt Q9BXX2)
inactive: erlotinib 0.077 | [1] 0.106 | [2] -0.053 | [3] -0.115 | [4] 0.005 | [5] -0.032 | [6] -0.047 | [7] -0.006 | [8] 0.124 | IRAK-1-4 Inhibitor I 0.095

ANKRD13A (UniProt Q8IZ07)
inactive: erlotinib -0.009 | [1] -0.018 | [2] 0.018 | [3] 0.041 | [4] -0.002 | [5] -0.004 | [6] -0.01 | [7] -0.001 | [8] 0.026 | IRAK-1-4 Inhibitor I 0.007

AP1S2 (UniProt P56377)
inactive: erlotinib 0.057 | [1] 0.034 | [2] -0.058 | [3] 0.032 | [4] -0.054 | [5] -0.039 | [6] 0.021 | [7] 0.235 | [8] 0.067 | IRAK-1-4 Inhibitor I 0.211

ANAPC2 (UniProt Q9UJX6)
inactive: erlotinib 0.04 | [1] -0.054 | [2] -0.021 | [3] 0.025 | [4] 0.07 | [5] 0.001 | [6] -0.026 | [7] -0.012 | [8] 0.05 | IRAK-1-4 Inhibitor I 0.012

ALDH5A1 isoform 2 (UniProt P51649)
inactive: erlotinib -0.005 | [1] 0.045 | [2] 0.024 | [3] -0.009 | [4] 0.006 | [5] 0.013 | [6] -0.026 | [7] -0.013 | [8] -0.002 | IRAK-1-4 Inhibitor I -0.012

ANXA1 (UniProt P04083)
inactive: erlotinib -0.012 | [1] 0.013 | [2] 0.015 | [3] 0.014 | [4] -0.009 | [5] -0.008 | [6] -0.021 | [7] 0.003 | [8] 0.016 | IRAK-1-4 Inhibitor I -0.013

AP1M1 (UniProt Q9BXS5)
inactive: erlotinib -0.023 | [1] -0.044 | [2] 0.01 | [3] -0.002 | [4] 0.004 | [5] 0.008 | [6] 0.034 | [7] -0.019 | [8] -0.007 | IRAK-1-4 Inhibitor I 0.003

AP1B1 (UniProt Q10567)
inactive: erlotinib -0.002 | [1] 0 | [2] -0.011 | [3] 0.017 | [4] -0.003 | [5] 0.016 | [6] 0.027 | [7] 0.003 | [8] 0.003 | IRAK-1-4 Inhibitor I 0.018

ANXA5 (UniProt P08758)
inactive: erlotinib -0.011 | [1] -0.001 | [2] -0.024 | [3] 0.014 | [4] -0.016 | [5] -0.023 | [6] 0.009 | [7] -0.003 | [8] -0.049 | IRAK-1-4 Inhibitor I -0.03

ANK3 (UniProt Q12955)
inactive: erlotinib -0.002 | [1] 0.02 | [2] -0.007 | [3] 0.034 | [4] 0.006 | [5] -0.055 | [6] -0.011 | [7] -0.002 | [8] 0.011 | IRAK-1-4 Inhibitor I -0.002

ALG5 (UniProt Q9Y673)
inactive: erlotinib 0.08 | [1] 0.051 | [2] -0.111 | [3] 0.025 | [4] -0.054 | [5] -0.023 | [6] -0.051 | [7] -0.085 | [8] 0.069 | IRAK-1-4 Inhibitor I 0.013

ANKRD26 (UniProt Q9UPS8)
inactive: erlotinib -0.013 | [1] -0.334 | [2] 0.026 | [3] 0.134 | [4] -0.111 | [5] -0.031 | [6] -0.341 | [7] 0.074 | [8] -0.17 | IRAK-1-4 Inhibitor I 0.269

ALDH9A1 isoform 3 (UniProt P49189)
inactive: erlotinib 0.001 | [1] 0.002 | [2] -0.016 | [3] -0.002 | [4] -0.01 | [5] 0.018 | [6] -0.018 | [7] -0.033 | [8] 0.039 | IRAK-1-4 Inhibitor I -0.011

ANAPC5 (UniProt Q9UJX4)
inactive: erlotinib 0.008 | [1] -0.025 | [2] -0.004 | [3] -0.006 | [4] 0.011 | [5] 0.031 | [6] 0 | [7] -0.008 | [8] 0.009 | IRAK-1-4 Inhibitor I 0.001

ALDH1A2 (UniProt O94788)
inactive: erlotinib -0.023 | [1] 0.006 | [2] 0.015 | [3] -0.017 | [4] 0.008 | [5] 0.007 | [6] 0.052 | [7] 0.023 | [8] -0.004 | IRAK-1-4 Inhibitor I 0.014

AP3D1 isoform 5 (UniProt O14617)
inactive: erlotinib -0.013 | [1] -0.004 | [2] -0.006 | [3] 0.011 | [4] 0.001 | [5] -0.007 | [6] -0.015 | [7] -0.015 | [8] -0.001 | IRAK-1-4 Inhibitor I -0.003

AP3B2 isoform 4 (UniProt Q13367)
inactive: erlotinib -0.021 | [1] 0.026 | [2] 0.027 | [3] 0.033 | [4] 0.016 | [5] -0.01 | [6] -0.029 | [7] -0.062 | [8] 0.008 | IRAK-1-4 Inhibitor I 0.002

ALG13 (UniProt Q9NP73)
inactive: erlotinib 0.022 | [1] -0.014 | [2] 0.049 | [3] -0.008 | [4] -0.048 | [5] 0.047 | [6] -0.032 | [7] -0.01 | [8] 0.083 | IRAK-1-4 Inhibitor I -0.02

ALG1 (UniProt Q9BT22)
inactive: erlotinib -0.031 | [1] -0.007 | [2] 0.066 | [3] 0.028 | [4] 0.051 | [5] -0.047 | [6] 0.066 | [7] 0 | [8] 0.063 | IRAK-1-4 Inhibitor I 0.042

ANXA4 (UniProt P09525)
inactive: erlotinib 0.006 | [1] 0.093 | [2] -0.007 | [3] -0.015 | [4] -0.002 | [5] -0.023 | [6] -0.024 | [7] -0.025 | [8] -0.025 | IRAK-1-4 Inhibitor I -0.046

ALG3 (UniProt Q92685)
inactive: erlotinib 0.19 | [1] -0.117 | [2] -0.12 | [3] -0.037 | [4] 0.056 | [5] -0.016 | [6] -0.182 | [7] -0.103 | [8] -0.037 | IRAK-1-4 Inhibitor I 0.019

ANPEP (UniProt P15144)
inactive: erlotinib -0.037 | [1] -0.078 | [2] -0.056 | [3] -0.152 | [4] -0.086 | [5] 0 | [6] -0.001 | [7] 0.08 | [8] -0.026 | IRAK-1-4 Inhibitor I 0.031
